For the assay, the target named is SYCP3_(Core) (human SYCP3 amino acids 66–230) (human) (UniProt Q8IZU3). The assay is described as follows: crystal structure; hanging drop, 100 mM Hepes pH 7.5, 100 mM NaCl, 13.0% PEG3350, 18°C; iodide SAD at 2.41 Å and native at 2.24 Å; two tetramers in the asymmetric unit; both purified.

This note sets out measurements from PMC4102245, “A molecular model for the role of SYCP3 in meiotic chromosome organisation” (eLife, 2014).

Results are given in words; binding and its absence hold for the method and conditions named. Some results given as binding are weak or reduced against the parent protein; the word gives no strength.

B1: SYCP3_(Core) (human SYCP3 amino acids 66–230) (domain or fragment, UniProt Q8IZU3 66-230, looked up)
chain: MGGEVQNMLEGVGVDINKALLAKRKRLEMYTKASLKTSNQKIEHVWKTQQDQRQKLNQEYSQQFLTLFQQWDLDMQKAEEQEEKILNMFRQQQKILQQSRIVQSQRLKTIKQLYEQFIKSMEELEKNHDNLLTGAQNEFKKEMAMLQKKIMMETQQQEIASVRKS
notes: Synaptonemal complex protein 3 (SYCP3), human, Swissprot Q8IZU3, amino acids 66-230; Cloned in pHAT4 with an N-terminal TEV-cleavable His6 tag; homotetramer by SEC-MALS, AUC and crystal structure; also called SYCP_(Core); not shown: His6, N-terminal, cleaved
As for B1, the binding result was “binds”.
